Data from paper doi:10.1101/2021.07.07.451493.
Results are given in words; binding and its absence hold for the method and conditions named. In cells and extracts the contact can be indirect. Some results given as binding are weak or reduced against the parent protein; the word gives no strength.

The chains behind the UniProt entries cited, without tags or fusion partners. Where a name states a change or a piece, a line headed by the entry shows the natural chain unless it says otherwise. A line that says so, or that is headed by a name, gives the form on record, which may keep a tag or linker.
APOE4, endogenous in APOE4/4 human postmortem brain (human (endogenous in postmortem brain)) (P02649, form named): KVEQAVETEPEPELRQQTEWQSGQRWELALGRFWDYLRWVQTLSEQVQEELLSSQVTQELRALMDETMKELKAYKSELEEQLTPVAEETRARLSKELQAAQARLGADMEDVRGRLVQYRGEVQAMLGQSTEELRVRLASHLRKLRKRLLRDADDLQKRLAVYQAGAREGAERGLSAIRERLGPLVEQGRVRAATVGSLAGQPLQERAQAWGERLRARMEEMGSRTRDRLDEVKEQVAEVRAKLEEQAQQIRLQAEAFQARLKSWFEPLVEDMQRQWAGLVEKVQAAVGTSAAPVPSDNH

Target: APOE4, endogenous in APOE4/4 human postmortem brain (human (endogenous in postmortem brain)) (UniProt P02649)
Assay: co-IP

- binding: binds
B1: glypican-4 (GPC-4), endogenous in human postmortem brain (protein, UniProt O75487 19-529)
chain: ALLAAELKSKSCSEVRRLYVSKGFNKNDAPLHEINGDHLKICPQGSTCCSQEMEEKYSLQSKDDFKSVVSEQCNHLQAVFASRYKKFDEFFKELLENAEKSLNDMFVKTYGHLYMQNSELFKDLFVELKRYYVVGNVNLEEMLNDFWARLLERMFRLVNSQYHFTDEYLECVSKYTEQLKPFGDVPRKLKLQVTRAFVAARTFAQGLAVAGDVVSKVSVVNPTAQCTHALLKMIYCSHCRGLVTVKPCYNYCSNIMRGCLANQGDLDFEWNNFIDAMLMVAERLEGPFNIESVMDPIDVKISDAIMNMQDNSVQVSQKVFQGCGPPKPLPAGRISRSISESAFSARFRPHHPEERPTTAAGTSLDRLVTDVKEKLKQAKKFWSSLPSNVCNDERMAAGNGNEDDCWNGKGKSRYLFAVTGNGLANQGNNPEVQVDTSKPDILILRQIMALRVMTSKMKNAYNGNDVDFFDISDESSGEGSGSGCEYQQCPSEFDYNATDHAGKSANEKADS
